Marks after values point to notes of the source that are not given here.
Assay: systemic inflammatory response to E. coli endotoxin after hydrocortisone pre-treatment in volunteers
Type: in vivo, human
Conditions: for 4 Hour CD14+ / 4 Hour MO / 4 Hour PMN / 4 Hour WBC: 4 hours after LPS; for 24 Hour CRP: 24 hours after LPS; for PEAK HR: after 2 ng/kg LPS; for PEAK T: after LPS; for BASE CD14+ / BASE CRP / BASE MO / BASE T / BASE WBC / Base PMN / BASE HR: before LPS
Description: Materials and Methods. Participants (n=36) were healthy male and female volunteers who were taking no chronic medications (other than oral contraceptives) and who were between the ages of 18 and 55.
On Day 1 of the study, participants were randomized in a double-blind manner to a Control Group, a Stress Group or a Pharm Group. A peripheral intravenous catheter was inserted in a hospital outpatient facility where participants remained during the day. For six hours, Control Group participants received intravenous saline at […] by infusion pump; Stress Group participants received 1.5 μg/kg/minute hydrocortisone (SOLUCORTEF®, Upjohn) in normal saline at 10 ml/hour, and Pharm Group participants received 3.0 μg/kg/minute hydrocortisone in normal saline at 10 ml/hour. The following day (Day 2), participants were admitted to an acute care facility where a peripheral intravenous catheter was again inserted in a proximal arm vein. Continuous electrocardiographic and pulse oximetry measurements were initiated; blood pressure and core temperature were measured every 15 minutes for the next five hours and every 30 minutes for the next 4 hours. Participants received 10 ml/kg lactated Ringer's solution intravenously over the first 2 hours after which the infusion was decreased to 1.5 ml/kg/hour. After the first hour, participants were administered 2 ng/kg E. coli endotoxin intravenously over 2 minutes. Participants remained in the acute care facility for remainder of the day with continuous nursing care and under the direct supervision of a physician. The intravenous catheter was removed after 9 hours. The following day (Day 3) and 2 days later (Day 5), repeat blood samples were obtained by venipuncture.
Salivary free cortisol measurements were made on Day 1 to compare the in vivo cortisol pre-treatment with laboratory reports that typically test the effects of free glucocorticoid concentrations. On Day 2 of the study, total plasma cortisol was measured to allow for comparison with the many clinical reports that have assessed these hormones during experimental endotoxemia and in endotoxemic patients. For salivary free cortisol measurements, saliva samples were collected with a […]™ collection device and stored at −80° C. until analysis by SALIMETRICS® Expanded Range High Sensitivity Salivary Cortisol Enzyme Immunoassay Kit (State College, Pa.). The analytical sensitivity of this assay is 3 ng/dL. For total cortisol, plasma was separated from heparinized whole blood and stored at −80° C. until analysis for plasma cortisol on an […]® 1000 analyzer using a Siemens Cortisol kit (Los Angeles, Calif.). The analytical sensitivity of this assay is 0.2 μg/dL. All adrenocorticotropic hormone (ACTH) measurements were performed on the […]® 1000 analyzer using a Siemens ACTH kit (Los Angeles, Calif.). The analytical sensitivity of this assay is 9 pg/mL. C-reactive protein (CRP) measurements were performed on the Roche P Module using the Roche High Sensitivity CRP kit (Indianapolis, Ind.). Analytical sensitivity of this assay is 0.1 mg/L. Complete blood counts were performed on the ADVIA 120® Hematology Analyzer using Siemens reagents (Ramsey, Minn.).
Plasma samples were collected and frozen at −80° C. for batched measurement of TNFalpha, IL-6 and IL-10 concentrations. TNFalpha was measured using a TNFalpha sandwich ELISA (paired antibodies; BD Biosciences Pharmingen, San Diego, Calif.). IL-6 levels were determined using an IL-6 ELISA kit (Peprotech, Rocky Hill, N.J.). IL-10 was measured using an IL-10 ELISA kit (Biosource, Camarillo, Calif.). Further cytokine testing was completed on frozen samples using multiplex immunobead technology (Luminex Corp.) which combines the principle of a sandwich immunoassay with fluorescent bead-based technology, allowing individual and multiplex analysis of multiple analytes in a single microtiter well. […]

Question: Which “4 Hour CD14+” value (Pharm 3 μg/kg/min) does the source give for `C[C@]12CCC(=O)C=C1CC[C@@H]1[C@@H]2[C@@H](O)C[C@@]2(C)[C@H]1CC[C@]2(O)C(=O)CO` [hydrocortisone] here?
Answer: 17.6* % PBMNCs

Question: What about the “4 Hour MO” value (Pharm 3 μg/kg/min) of the same compound?
Answer: 85 per ml

Question: What about the “4 Hour PMN” value (Pharm 3 μg/kg/min) of the same compound?
Answer: 8390 per ml

Question: What about the “4 Hour WBC” value (Pharm 3 μg/kg/min) of the same compound?
Answer: 9.1 × 10^3 per ml

Question: And the “24 Hour CRP” value (Pharm 3 μg/kg/min)?
Answer: 44.0 mg/L

Question: What about the “PEAK HR” value (Pharm 3 μg/kg/min) of the same compound?
Answer: 106 bpm

Question: And the “PEAK T” value (Pharm 3 μg/kg/min)?
Answer: 38.1 °C

Question: And the “BASE CD14+” value (Pharm 3 μg/kg/min)?
Answer: 17.2 % PBMNCs

Question: What about the “BASE CRP” value (Pharm 3 μg/kg/min) of the same compound?
Answer: 1.8 mg/L

Question: What about the “BASE MO” value (Pharm 3 μg/kg/min) of the same compound?
Answer: 264 per ml

Question: And the “BASE T” value (Pharm 3 μg/kg/min)?
Answer: 36.5 °C

Question: And the “BASE WBC” value (Pharm 3 μg/kg/min)?
Answer: 7.0 × 10^3 per ml

Question: What about the “Base PMN” value (Pharm 3 μg/kg/min) of the same compound?
Answer: 4842 per ml

Question: And the “BASE HR” value (Pharm: hydrocortisone 3 μg/kg/min iv 6 hours on Day 1)?
Answer: 70 bpm

Question: And the “4 Hour CD14+” value (Stress 1.5 μg/kg/min)?
Answer: 17.9* % PBMNCs

Question: What about the “4 Hour MO” value (Stress 1.5 μg/kg/min) of the same compound?
Answer: 112 per ml

Question: And the “4 Hour PMN” value (Stress 1.5 μg/kg/min)?
Answer: 8353 per ml

Question: What about the “4 Hour WBC” value (Stress 1.5 μg/kg/min) of the same compound?
Answer: 9.1 × 10^3 per ml

Question: What about the “24 Hour CRP” value (Stress 1.5 μg/kg/min) of the same compound?
Answer: 51.0 mg/L

Question: What about the “PEAK HR” value (Stress 1.5 μg/kg/min) of the same compound?
Answer: 111 bpm

Question: And the “PEAK T” value (Stress 1.5 μg/kg/min)?
Answer: 38.4 °C

Question: What about the “BASE CD14+” value (Stress 1.5 μg/kg/min) of the same compound?
Answer: 17.1 % PBMNCs

Question: And the “BASE CRP” value (Stress 1.5 μg/kg/min)?
Answer: 2.6 mg/L

Question: What about the “BASE MO” value (Stress 1.5 μg/kg/min) of the same compound?
Answer: 297 per ml

Question: And the “BASE T” value (Stress 1.5 μg/kg/min)?
Answer: 36.6 °C

Question: And the “BASE WBC” value (Stress 1.5 μg/kg/min)?
Answer: 6.8 × 10^3 per ml

Question: What about the “Base PMN” value (Stress 1.5 μg/kg/min) of the same compound?
Answer: 4312 per ml

Question: What about the “BASE HR” value (Stress: hydrocortisone 1.5 μg/kg/min iv 6 hours on Day 1) of the same compound?
Answer: 73 bpm

— US20110104121A1, “Female Reproductive Tract and Anal Prophylaxes” (priority 2008, published 2011)
